Test results: paper PMC8946172
The exact form of at least one protein or probe is not confirmed. Where cells or extracts were used, other partners may take part. For part of these data: At least one verdict was read from the data and is not stated in words by the source. For part of these data: Tags and fusion partners may be left off the protein sequences shown.

Legend:
[1] = biological target: Integrin alpha3 (CD49c) on intact TNBC cells (MDA-MB-231, HCC38) (Homo sapiens) (UniProt P26006); experiment: competition with PE-anti-CD49c (C3 II.1), flow cytometry; conditions: 1 uM aptamer pre-incubated, reduces antibody binding to MDA-MB-231 and HCC38, 5 mM Mg2+; cell binding: 1x PBS, 5 mM MgCl2, 0.1 g/L yeast tRNA, 4.5 g/L glucose, 1 g/L BSA, RT 15-30 min; protein on the cell surface; label: 5'-Cy3; single-stranded DNA
[2] = biological target: Integrin alpha3 (CD49c) on intact TNBC cells (MDA-MB-231, HCC38) (Homo sapiens) (UniProt P26006); experiment: flow cytometry on cells, with anti-CD49c pre-incubation; conditions: 200 nM aptamer, MDA-MB-231 and HCC38, binding not affected by anti-CD49c, 5 mM Mg2+; cell binding: 1x PBS, 5 mM MgCl2, 0.1 g/L yeast tRNA, 4.5 g/L glucose, 1 g/L BSA, RT 15-30 min; protein on the cell surface; label: 5'-FAM; single-stranded DNA
[3] = biological target: T1, Integrin alpha3 (CD49c), endogenous, from membrane fraction of TNBC cells (MDA-MB-231, HCC38, Hs578T mixture) (Homo sapiens) (UniProt P26006); experiment: pull-down with streptavidin beads, silver stain, LC-MS/MS; conditions: 5 mM Mg2+, enriched 1143-fold over random ssDNA (p = 1.3e-18); Pull-down: 1x PBS, 5 mM MgCl2, 1% Triton X-100, PMSF, protease inhibitors, 4 C overnight, 2 uM aptamer; protein in an extract; label: 5'-biotin; single-stranded DNA
T1 sequence (looked up, limits assumed): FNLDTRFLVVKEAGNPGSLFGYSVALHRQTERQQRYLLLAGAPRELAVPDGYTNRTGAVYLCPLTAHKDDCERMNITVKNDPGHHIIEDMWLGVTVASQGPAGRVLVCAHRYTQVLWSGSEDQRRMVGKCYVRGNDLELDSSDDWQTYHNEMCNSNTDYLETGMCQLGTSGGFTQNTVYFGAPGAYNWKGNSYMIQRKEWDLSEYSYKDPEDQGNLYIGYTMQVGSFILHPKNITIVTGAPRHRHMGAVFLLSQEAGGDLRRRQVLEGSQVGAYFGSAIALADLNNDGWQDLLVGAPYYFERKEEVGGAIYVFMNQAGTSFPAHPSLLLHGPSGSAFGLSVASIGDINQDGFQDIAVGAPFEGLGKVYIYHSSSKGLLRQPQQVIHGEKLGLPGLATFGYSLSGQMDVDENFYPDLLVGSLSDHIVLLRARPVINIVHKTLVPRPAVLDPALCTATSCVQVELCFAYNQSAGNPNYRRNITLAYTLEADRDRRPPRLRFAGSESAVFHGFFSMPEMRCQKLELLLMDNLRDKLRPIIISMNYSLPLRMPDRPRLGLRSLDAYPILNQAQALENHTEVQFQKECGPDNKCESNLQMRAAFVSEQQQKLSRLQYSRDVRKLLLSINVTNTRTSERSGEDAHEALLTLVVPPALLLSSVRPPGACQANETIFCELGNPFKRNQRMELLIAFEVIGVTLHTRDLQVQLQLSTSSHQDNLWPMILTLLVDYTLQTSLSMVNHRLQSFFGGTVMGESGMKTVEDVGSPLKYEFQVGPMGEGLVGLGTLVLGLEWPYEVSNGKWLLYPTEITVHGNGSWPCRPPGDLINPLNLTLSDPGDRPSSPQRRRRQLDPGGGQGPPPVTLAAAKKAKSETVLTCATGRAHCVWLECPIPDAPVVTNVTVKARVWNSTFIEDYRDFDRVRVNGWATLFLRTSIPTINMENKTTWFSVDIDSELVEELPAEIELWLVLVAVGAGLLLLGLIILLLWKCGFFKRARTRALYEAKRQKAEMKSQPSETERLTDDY

Question: Does “ACACCAAAATCGTCCGTTTCGTTTTAGTCCGTCTCTTTAGGGTGT [Cy3-PDGC21T]” bind [1]?
Answer: Result: binds

Question: Does “ACACCAAAATCGTCCGTTTCGTTTTAGTCCGTCTCTTTAGGGTGT [FAM-PDGC21T]” bind [2]?
Answer: Result: binds

Question: Does “ACACCAAAATCGTCCGTTTCGTTTTAGTCCGTCTCTTTAGGGTGT [biotinylated PDGC21T]” bind [3]?
Answer: Result: binds
